Results reported in PubChem BioAssay AID256 (DTP/NCI, 2004).
The list does not hold the whole screen: it gathers some chemical classes. Other doses and runs of a compound may be missing. T/C: endpoint of the treated group in % of that of the vehicle group. Some doses have a count of surviving animals in place of a T/C: the source holds a T/C of zero for them, seemingly a mark for toxic or unscored doses. Some survivor counts are full or nearly so, which does not show that the dose was tolerated: the source hardly ever lists a survival T/C far under the control, and the zero likely stands for such cases as well. Survivors were counted at the toxicity check, usually on the fifth day, unless a day is given; later deaths do not show. Schedule codes are those of the source, read here as Q, the interval in days (D) or hours (H), X, the number of doses. Where survival is the endpoint, the PubChem record calls one and a half times the control and up active, and a quarter to a half above the control has no call in these data; cut-offs in other NCI protocols can differ. Some entries were tested several times; their values stand side by side, smallest first. Some entries show no survivor count and are marked so; the dose need not have been tolerated. Some T/C values are followed by the survivors on the day toxicity was checked, most often the fifth; without a count or a note in brackets, all were alive then.

Test system: CD2F1 mice, L1210 leukemia ip, survival T/C
Experiment: NCI In Vivo Anticancer Drug Screen. Data for tumor model L1210 Leukemia (intraperitoneal) in CD2F1 (CDF1) mice
Conditions: T/C endpoint: mean survival time, higher T/C = longer survival
Procedure: The antitumor activity of compounds was measured in mice bearing transplantable tumors. Survival or tumor size were measured and the results are expressed as the measurement made in the treated group (T) divided by the measurement made in the vehicle treated control group (C). The tumor model used in this assay is L1210 Leukemia (intraperitoneal) in CD2F1 (CDF1) mice

[1] = dose: 100.0 mg/kg/injection, schedule: Q01DX009 (ip), vehicle: saline
[2] = dose: 200.0 mg/kg/injection, schedule: Q01DX009 (ip), vehicle: saline
[3] = dose: 400.0 mg/kg/injection, schedule: Q01DX009 (ip), vehicle: saline
[4] = dose: 15.62 mg/kg/injection, schedule: Q01DX001 (ip), vehicle: DMSO
[5] = dose: 31.3 mg/kg/injection, schedule: Q01DX001 (ip), vehicle: DMSO
[6] = dose: 62.5 mg/kg/injection, schedule: Q01DX001 (ip), vehicle: DMSO
[7] = dose: 125.0 mg/kg/injection, schedule: Q01DX001 (ip), vehicle: DMSO
[8] = dose: 250.0 mg/kg/injection, schedule: Q01DX001 (ip), vehicle: DMSO
[9] = dose: 500.0 mg/kg/injection, schedule: Q01DX001 (ip), vehicle: DMSO
[10] = dose: 400.0 mg/kg/injection, schedule: Q01DX001 (ip), vehicle: DMSO

SMILES: COc1ccc(N(CCCl)CCCl)cc1OC
- T/C (dose: 6.25 mg/kg/injection, schedule: Q01DX009 (ip), vehicle: Klucel (hydroxypropylcellulose) (HPC)): 107 % of control
- T/C (dose: 12.5 mg/kg/injection, schedule: Q01DX009 (ip), vehicle: Klucel (hydroxypropylcellulose) (HPC)): 110 % of control
- T/C (dose: 25.0 mg/kg/injection, schedule: Q01DX009 (ip), vehicle: Klucel (hydroxypropylcellulose) (HPC)): 107 % of control
- T/C (dose: 50.0 mg/kg/injection, schedule: Q01DX009 (ip), vehicle: Klucel (hydroxypropylcellulose) (HPC)): 113 % of control
- survivor count (dose: 100.0 mg/kg/injection, schedule: Q01DX009 (ip), vehicle: Klucel (hydroxypropylcellulose) (HPC)): 8 of 8
- survivor count (dose: 200.0 mg/kg/injection, schedule: Q01DX009 (ip), vehicle: Klucel (hydroxypropylcellulose) (HPC)): 1 of 8

SMILES: C[As](=O)(O)O
- T/C (dose: 12.5 mg/kg/injection, schedule: Q01DX009 (ip), vehicle: saline): 96 % of control
- T/C (dose: 25.0 mg/kg/injection, schedule: Q01DX009 (ip), vehicle: saline): 101 % of control
- T/C (dose: 50.0 mg/kg/injection, schedule: Q01DX009 (ip), vehicle: saline): 108 % of control

SMILES: N#CSc1ccc([N+](=O)[O-])cc1[N+](=O)[O-]
- T/C [1]: 97 % of control
- survivor count [2]: 0 of 6
- survivor count [3]: 0 of 6

SMILES: Cn1/c(=N/Nc2c([N+](=O)[O-])cc([N+](=O)[O-])cc2[N+](=O)[O-])sc2ccccc21
- T/C (dose: 100.0 mg/kg/injection, schedule: Q04DX003 (ip), vehicle: saline): 101 % of control [survivor count not shown]
- T/C (dose: 200.0 mg/kg/injection, schedule: Q04DX003 (ip), vehicle: saline): 100 % of control [survivor count not shown]
- T/C (dose: 400.0 mg/kg/injection, schedule: Q04DX003 (ip), vehicle: saline): 95 % of control [survivor count not shown]

SMILES: O=P1(c2ccccc2)NC2CC(Cl)CCC2S1 (centres undefined)
- T/C (dose: 100.0 mg/kg/injection, schedule: Q04DX002 (ip), vehicle: other): 100 % of control
- T/C (dose: 200.0 mg/kg/injection, schedule: Q04DX002 (ip), vehicle: other): 95 % of control
- survivor count (dose: 400.0 mg/kg/injection, schedule: Q04DX002 (ip), vehicle: other): 0 of 3

SMILES: Cc1cn(C2CC3OP(C)(=O)OCC3O2)c(=O)[nH]c1=O (centres undefined)
- T/C (dose: 12.5 mg/kg/injection, schedule: Q01DX005 (ip), vehicle: water): 102 % of control
- T/C (dose: 25.0 mg/kg/injection, schedule: Q01DX005 (ip), vehicle: water): 101 % of control
- T/C (dose: 50.0 mg/kg/injection, schedule: Q01DX005 (ip), vehicle: water): 111 % of control
- T/C (dose: 100.0 mg/kg/injection, schedule: Q01DX005 (ip), vehicle: water): 101 % of control
- T/C (dose: 200.0 mg/kg/injection, schedule: Q01DX005 (ip), vehicle: water): 107 % of control

SMILES: O=P1(N(CCCl)CCCl)OCCO1
- T/C (dose: 62.5 mg/kg/injection, schedule: Q01DX001 (ip), vehicle: water): 112 % of control
- T/C (dose: 110.0 mg/kg/injection, schedule: Q01DX001 (ip), vehicle: water): 103 % of control
- T/C (dose: 125.0 mg/kg/injection, schedule: Q01DX001 (ip), vehicle: water): 116 % of control
- T/C (dose: 167.0 mg/kg/injection, schedule: Q01DX001 (ip), vehicle: water): 114 % of control
- T/C (dose: 250.0 mg/kg/injection, schedule: Q01DX001 (ip), vehicle: water): 111 and 128 % of control
- survivor count (dose: 375.0 mg/kg/injection, schedule: Q01DX001 (ip), vehicle: water): 3 of 6
- survivor count (dose: 500.0 mg/kg/injection, schedule: Q01DX001 (ip), vehicle: water): 2 of 6

SMILES: CCCC(C)NCCO.O=[N+]([O-])c1cc([N+](=O)[O-])c(O)c([N+](=O)[O-])c1
- T/C (dose: 75.0 mg/kg/injection, schedule: Q01DX001 (ip), vehicle: other): 98 % of control [survivor count not shown]
- T/C (dose: 150.0 mg/kg/injection, schedule: Q01DX001 (ip), vehicle: other): 96 % of control [survivor count not shown]

SMILES: CC(C=O)COP(N)(=O)N(CCCl)CCCl (centres undefined)
- T/C [4]: 101 % of control
- T/C [5]: 98 % of control
- T/C [6]: 103 % of control
- T/C [7]: 120 % of control
- T/C [8]: 120 % of control
- T/C [9]: 119 % of control

SMILES: CC(O)C(C)COP(N)(=O)N(CCCl)CCCl (centres undefined)
- T/C [4]: 98 % of control
- T/C [5]: 97 % of control
- T/C [6]: 98 % of control
- T/C [7]: 106 % of control
- T/C [8]: 106 % of control
- T/C [9]: 106 % of control

SMILES: COc1c(OC)c2c(C)c3ccccc3c(C)c2c2ccccc12.O=C1c2cc([N+](=O)[O-])ccc2-c2c1cc([N+](=O)[O-])cc2[N+](=O)[O-]
- T/C (dose: 100.0 mg/kg/injection, schedule: Q04DX002 (ip), vehicle: saline with Tween-80): 90 % of control
- T/C (dose: 200.0 mg/kg/injection, schedule: Q04DX002 (ip), vehicle: saline with Tween-80): 90 % of control
- T/C (dose: 400.0 mg/kg/injection, schedule: Q04DX002 (ip), vehicle: saline with Tween-80): 90 % of control

SMILES: O=CCCOP(=O)(N(CCCl)CCCl)N1CC1 (centres undefined)
- T/C (dose: 25.0 mg/kg/injection, schedule: Q01DX001 (ip), vehicle: DMSO, evaluated on day 35): 103 % of control
- T/C (dose: 25.0 mg/kg/injection, schedule: Q01DX001 (ip), vehicle: DMSO, evaluated on day 45): 127 % of control
- T/C (dose: 50.0 mg/kg/injection, schedule: Q01DX001 (ip), vehicle: DMSO, evaluated on day 35): 105 % of control
- T/C (dose: 50.0 mg/kg/injection, schedule: Q01DX001 (ip), vehicle: DMSO, evaluated on day 45): 143 % of control
- T/C (dose: 100.0 mg/kg/injection, schedule: Q01DX001 (ip), vehicle: DMSO, evaluated on day 35): 114 % of control
- T/C (dose: 100.0 mg/kg/injection, schedule: Q01DX001 (ip), vehicle: DMSO, evaluated on day 45): 138 % of control
- T/C (dose: 200.0 mg/kg/injection, schedule: Q01DX001 (ip), vehicle: DMSO, evaluated on day 35): 128 % of control
- T/C (dose: 200.0 mg/kg/injection, schedule: Q01DX001 (ip), vehicle: DMSO, evaluated on day 45): 168 % of control
- T/C [10]: 140 % of control
- survivor count [10]: 2 of 6

SMILES: CCP1(=O)Nc2ccccc2N1
- T/C [1]: 89 % of control [survivor count not shown]
- T/C [2]: 112 % of control [survivor count not shown]
- T/C [3]: 121 % of control [survivor count not shown]

SMILES: CCN(CCNCCCNCCSP(=O)(O)O)c1cccc(C)c1
- T/C (dose: 1.5 mg/kg/injection, schedule: Q01DX009 (ip), vehicle: saline sonified): 104 % of control
- T/C (dose: 3.0 mg/kg/injection, schedule: Q01DX009 (ip), vehicle: saline sonified): 104 % of control
- T/C (dose: 6.0 mg/kg/injection, schedule: Q01DX009 (ip), vehicle: saline sonified): 104 % of control [5 of 6 alive]
- survivor count (dose: 25.0 mg/kg/injection, schedule: Q01DX009 (ip), vehicle: saline with Tween-80): 1 of 6
- survivor count (dose: 50.0 mg/kg/injection, schedule: Q01DX009 (ip), vehicle: saline with Tween-80): 0 of 6
- survivor count (dose: 100.0 mg/kg/injection, schedule: Q01DX009 (ip), vehicle: saline with Tween-80): 1 of 6

SMILES: CC(CO)COP(=O)(N(CCCl)CCCl)N1CC1 (centres undefined)
- T/C [4]: 95 % of control
- T/C [5]: 95 % of control
- T/C [6]: 97 % of control
- T/C [7]: 95 % of control
- T/C [8]: 97 % of control
- T/C [9]: 104 % of control

SMILES: CCCP(=O)(O)OCCOc1ccc(Cl)cc1Cl
- T/C (dose: 100.0 mg/kg/injection, schedule: Q04DX003 (ip), vehicle: saline with Tween-80): 99 % of control [survivor count not shown]
- T/C (dose: 200.0 mg/kg/injection, schedule: Q04DX003 (ip), vehicle: saline with Tween-80): 97 % of control [survivor count not shown]
